In paper PMC10897327:
No constants are given. Whether binding was seen depends on the method and setting. Binding seen in cells or lysates may run through a third protein. A result given as binding can be weak or reduced; the word gives no strength.

Molecular target: C-terminally FLAG-tagged WT 52K (adenovirus L1-52/55 kilodalton protein) (human adenovirus type C5 (Ad5))
Test: co-IP; anti-FLAG (mouse M2) IP of C-terminally FLAG-tagged 52K from lysates of Δ52K Ad5-infected HEK-293 cells at 24 hpi, Protein G Dynabeads, IgG control; immunoblot of eluates (10%) against input (1%)

B1: packaging protein IVa2 (protein, UniProt P03271 1-449)
chain: METRGRRPAALQHQQDQPQAHPGQRAARSAPLHRDPDYADEDPAPVERHDPGPSGRAPTTAVQRKPPQPAKRGDMLDRDAVEQVTELWDRLELLGQTLKSMPTADGLKPLKNFASLQELLSLGGERLLADLVRENMRVRDMLNEVAPLLRDDGSCSSLNYQLHPVIGVIYGPTGCGKSQLLRNLLSSQLISPTPETVFFIAPQVDMIPPSELKAWEMQICEGNYAPGPDGTIIPQSGTLRPRFVKMAYDDLILEHNYDVSDPRNIFAQAAARGPIAIIMDECMENLGGHKGVSKFFHAFPSKLHDKFPKCTGYTVLVVLHNMNPRRDMAGNIANLKIQSKMHLISPRMHPSQLNRFVNTYTKGLPLAISLLLKDIFRHHAQRSCYDWIIYNTTPQHEALQWCYLHPRDGLMPMYLNIQSHLYHVLEKIHRTLNDRDRWSRAYRARKTPK
binding: binds
